Values quoted from earlier work in US20230150906A1, “DESOXYSCALINE DERIVATIVES WITH MODIFIED MESCALINE-LIKE ACTION” (Mind Medicine, Inc., priority 2021, published 2023).
At least one compound was matched to its structure with a doubt left.

Amino acid sequences for entries named in this document (tags omitted).
UniProt P14416, whole entry: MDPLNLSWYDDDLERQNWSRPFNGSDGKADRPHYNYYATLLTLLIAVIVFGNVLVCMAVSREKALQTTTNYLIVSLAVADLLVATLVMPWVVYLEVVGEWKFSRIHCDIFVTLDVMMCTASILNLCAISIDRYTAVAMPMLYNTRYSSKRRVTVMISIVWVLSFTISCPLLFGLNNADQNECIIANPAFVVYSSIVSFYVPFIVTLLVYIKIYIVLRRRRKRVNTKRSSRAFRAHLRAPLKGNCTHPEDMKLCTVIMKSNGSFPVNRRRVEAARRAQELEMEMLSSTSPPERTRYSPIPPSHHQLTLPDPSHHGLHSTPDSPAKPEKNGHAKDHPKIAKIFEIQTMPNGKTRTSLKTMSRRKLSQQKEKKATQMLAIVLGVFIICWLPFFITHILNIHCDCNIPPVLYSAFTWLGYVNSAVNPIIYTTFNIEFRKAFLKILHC
UniProt P28223, whole entry: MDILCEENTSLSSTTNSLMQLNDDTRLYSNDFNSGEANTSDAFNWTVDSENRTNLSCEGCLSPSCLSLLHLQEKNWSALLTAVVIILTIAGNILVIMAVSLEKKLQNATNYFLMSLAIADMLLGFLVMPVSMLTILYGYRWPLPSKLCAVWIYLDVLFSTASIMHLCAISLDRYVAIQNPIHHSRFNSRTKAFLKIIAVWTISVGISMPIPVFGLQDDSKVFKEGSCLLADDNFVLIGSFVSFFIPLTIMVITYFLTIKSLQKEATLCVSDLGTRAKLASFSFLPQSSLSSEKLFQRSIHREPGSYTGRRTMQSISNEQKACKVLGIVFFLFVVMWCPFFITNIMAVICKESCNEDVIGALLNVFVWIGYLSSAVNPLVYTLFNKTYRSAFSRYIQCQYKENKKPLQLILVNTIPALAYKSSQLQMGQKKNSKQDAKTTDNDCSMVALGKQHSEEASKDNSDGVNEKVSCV

How the values were obtained:
D2 receptors = D2 receptors (Homo sapiens, UniProt P14416)
5-HT2A receptor = 5-HT2A receptor (Homo sapiens, UniProt P28223)

CN(C)CCc1c[nH]c2cccc(OP(=O)(O)O)c12 [psilocybin]
affinity for D2 receptors (D2 receptors): no affinity | activity at the 5-HT2A receptor (agonism / stimulation) (5-HT2A receptor): agonists
